Reference: PubChem BioAssay AID2551 (National Center for Advancing Translational Sciences (NCATS), 2010)
In all, about 310,000 compounds went through this assay and about 17,000 (5.5%) were called active. The shares of active, inactive and inconclusive entries below differ from those in the screen. The call rests on the fitted dose curve; in most records, active means well fitted inhibition curve with a large enough effect; inconclusive means small, poorly fitted or top-dose-only effect, or effect the other way; inactive means no such curve, though single readings can be large or run the other way. Potencies beside an inconclusive call are fits to weak or partial responses and may not hold up.

Sequences of proteins named here, by UniProt entry; tags and fusion partners are left off. A change or cut given only in a name is not applied to a line headed by its entry.
UniProt P51450: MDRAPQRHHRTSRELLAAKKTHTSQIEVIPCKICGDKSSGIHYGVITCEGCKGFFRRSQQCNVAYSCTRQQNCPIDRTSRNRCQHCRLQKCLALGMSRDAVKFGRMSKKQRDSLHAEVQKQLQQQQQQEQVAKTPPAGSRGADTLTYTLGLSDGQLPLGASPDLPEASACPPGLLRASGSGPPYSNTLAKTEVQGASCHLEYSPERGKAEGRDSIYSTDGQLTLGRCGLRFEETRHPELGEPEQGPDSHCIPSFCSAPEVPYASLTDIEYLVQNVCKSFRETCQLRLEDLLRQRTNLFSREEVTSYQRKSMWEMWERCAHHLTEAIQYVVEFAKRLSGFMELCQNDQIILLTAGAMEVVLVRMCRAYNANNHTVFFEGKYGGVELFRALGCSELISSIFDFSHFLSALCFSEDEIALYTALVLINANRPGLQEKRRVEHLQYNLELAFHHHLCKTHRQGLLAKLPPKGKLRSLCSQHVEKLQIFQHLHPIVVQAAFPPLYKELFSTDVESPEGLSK

target: Nuclear receptor ROR-gamma (Mus musculus) (UniProt P51450); test: qHTS for inhibitors of ROR gamma transcriptional activity; details: Drosophila S2 Gal4-RORgamma UAS-luciferase reporter, 20 h; series mostly up to 53.6 µM; further: nearly all actives have a fitted effect of over 60% in size
Outline: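 Compounds are pin-transferred onto Drosophila Schneider cells expressing a copper-inducible Gal4–ROR gamma transactivation domain fusion. After 1 hr, copper sulfate is added to 700 uM final; luciferase is read 20 hr later.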
Potency means the concentration at half of the fitted maximal effect.

How did the Potency turn out when `CC(C)(C)c1ccc(C(=O)NC(=S)N2CCCC2)cc1` was run?
Its Potency is active: 0.708 µM.

How did the Potency turn out when `Fc1ccc(N=c2ssnc2Cl)c(F)c1` was run?
Its Potency is inconclusive: 35.5 µM [inhibitor, single point].

For `COCCN(C(=S)Nc1ccccc1C)C(C)c1ccco1` (stereo not given), which Potency is on record?
Its Potency is inconclusive: 11.2 µM [inhibitor, single point].

For `O=CC1=C(c2ccccc2)Oc2ccccc2O1`, which Potency is on record?
The Potency was inconclusive: 35.5 µM [inhibitor, single point].

Which Potency does the source give for `Cc1cccc(C(=O)Nc2sc(C)c(-c3ccccc3)c2C#N)c1` here?
The Potency was inconclusive: 8.91 µM [inhibitor, partial curve, poor fit].

Which Potency does the source give for `COc1ccc(NC(=O)NC2CCCCCCC2)cc1` here?
The Potency was “inactive”.

With `CCc1ccccc1NC(=O)c1cnc2scc(C)n2c1=O` as the molecule, how does the Potency read?
Its Potency is inconclusive: 14.1 µM [activator, partial curve, poor fit].

For `Cc1ccc(-n2c(SCc3cn4ccsc4n3)nc3ccccc3c2=O)cc1`, which Potency is on record?
Its Potency is “inactive”.

Which Potency does the source give for `Cc1ccccc1OCCCSc1nc2ccccc2[nH]1` here?
Its Potency is inconclusive: 15.8 µM [activator, partial curve].

How did the Potency turn out when `COC(=O)c1ccc2c(=O)n(CCCCCC(=O)NC(C)C)c(=O)[nH]c2c1` was run?
The Potency was “inactive”.

How did the Potency turn out when `CN(C)CCNc1ncnc2c1sc1nc(-c3ccccc3)c3c(c12)CCCC3` was run?
Its Potency is inconclusive: 2.24 µM [inhibitor, partial curve].

`COc1cc(CNCCc2ccccc2)cc(Cl)c1OCc1ccccc1` was tested. Which Potency did it give?
Its Potency is inconclusive: 22.4 µM [inhibitor, single point].

With `CC(C)c1ccc(NC(=S)NCCc2c[nH]c3ccccc23)cc1` as the molecule, how does the Potency read?
The Potency was active: 10 µM.

With `CC(=O)C(Sc1nc(NC(C)(C)C)nc(N(C)C)n1)C(C)=O` as the molecule, how does the Potency read?
The Potency was active: 6.31 µM.

Which Potency does the source give for `O=C1CC(c2ccccc2)CC(O)=C1C=NC1CCCC1` (stereo not given) here?
Its Potency is inconclusive: 20 µM [activator, single point].

With `COc1ccc(C(=O)N2CCC3(CC2)CN(Cc2ccc(C#N)cc2)C3)cc1` as the molecule, how does the Potency read?
The Potency was “inactive”.

Which Potency does the source give for `COc1cc(OC)cc(C(=O)N2CCN(c3ncccn3)CC2)c1` here?
The Potency was inconclusive: 35.5 µM [inhibitor, single point].

For `COc1ccc(NC(=S)N/N=C/c2cccn2Cc2ccc(F)cc2Cl)cc1`, which Potency is on record?
Its Potency is active: 0.794 µM.

How did the Potency turn out when `CN(C)S(=O)(=O)c1ccc(C(=O)NCCSc2ccc(Br)cc2)cc1` was run?
The Potency was inconclusive: 20 µM [activator, partial curve, poor fit].

With `CC(C)c1ccccc1OCC(=O)NCC(c1cccs1)N1CCOCC1` (stereo not given) as the molecule, how does the Potency read?
Its Potency is inconclusive: 35.5 µM [activator, single point].

Which Potency does the source give for `CSc1ccc(/C=N/N(C)S(=O)(=O)c2ccc(C)cc2)cc1` here?
The Potency was “inactive”.

How did the Potency turn out when `CCCCOc1ccc(CSC(CC(=O)O)C(=O)O)cc1` (stereo not given) was run?
Its Potency is active: 2.24 µM.

`CC1CC(C)(C)NC(=S)N1CCC(=O)Nc1ccc2c(c1)OCCO2` (stereo not given) was tested. Which Potency did it give?
Its Potency is “inactive”.

`COc1ccc(OC)c(S(=O)(=O)ON2C(=O)c3ccccc3C2=O)c1` was tested. Which Potency did it give?
The Potency was active: 5.62 µM.

`Cc1ccccc1CS(=O)(=O)c1snnc1C` was tested. Which Potency did it give?
The Potency was “inactive”.

`C/C(CC(=O)NC12CC3CC(CC(C3)C1)C2)=N\NC(=O)c1ccc(C)cc1` was tested. Which Potency did it give?
The Potency was inconclusive: 22.4 µM [inhibitor, single point].

Which Potency does the source give for `CC(C)(C)c1ccc(-n2ncc3c2CCCC3NC(=O)CN2CCCCC2=O)cc1` (stereo not given) here?
Its Potency is “inactive”.

How did the Potency turn out when `Clc1cc(Cl)cc(C2=N[C@@H](Cc3ccccc3)CO2)c1` was run?
Its Potency is “inactive”.

With `O=C(/C=C/c1ccc(Cl)c([N+](=O)[O-])c1)Nc1ccc(NC(=O)c2ccco2)cc1` as the molecule, how does the Potency read?
Its Potency is inconclusive: 15.8 µM [inhibitor, single point].

How did the Potency turn out when `CC(C)CCNC(=O)c1sc2ccc(S(=O)(=O)N3CCCCC3)cc2c1N` was run?
Its Potency is “inactive”.

With `C=CCCCCCCCCCCCc1ccco1` as the molecule, how does the Potency read?
The Potency was “inactive”.

Which Potency does the source give for `COc1ccc(NC(C)C(=O)N/N=C/c2ccc([N+](=O)[O-])s2)cc1` (stereo not given) here?
The Potency was inconclusive: 5.01 µM [inhibitor, single point].

Which Potency does the source give for `O=C(Nc1ccc(N2CCN(C(=O)c3ccco3)CC2)cc1)c1cccs1` here?
The Potency was inconclusive: 3.55 µM [activator, full curve].

`CC(=O)Nc1ccc(S(=O)(=O)Nc2cccc(N(C)S(C)(=O)=O)c2)cc1` was tested. Which Potency did it give?
The Potency was inconclusive: 35.5 µM [activator, single point].

For `CCOC(=O)c1c(C)oc2c1c(C(c1ccccc1)N1CCOCC1)c(O)c1ccccc12` (stereo not given), which Potency is on record?
Its Potency is inconclusive: 5.62 µM [activator, single point].

For `COc1nc(C)ccc1-c1noc(-c2cccs2)n1`, which Potency is on record?
Its Potency is active: 1.78 µM.

Which Potency does the source give for `CCOC(=O)/C(C#N)=C1/C=C(C)NC(c2ccccc2O)=N1` here?
The Potency was inconclusive: 35.5 µM [inhibitor, single point].

With `Cc1cccc(-c2nnc(SCC#N)n2Cc2ccccc2)c1` as the molecule, how does the Potency read?
Its Potency is “inactive”.

With `COc1ccc2c(=O)c(C(=O)NCc3ccccc3)c[nH]c2c1` as the molecule, how does the Potency read?
The Potency was inconclusive: 35.5 µM [activator, single point].

For `Cn1ccnc1SCC(=O)Nc1ccc(Oc2ccccc2)cc1`, which Potency is on record?
The Potency was inconclusive: 14.1 µM [activator, partial curve].

Which Potency does the source give for `CC(OC(=O)CCCN=C1NS(=O)(=O)c2ccccc21)C(=O)NC1CCCCC1C` (stereo not given) here?
Its Potency is inconclusive: 5.62 µM [activator, single point].

For `O=C1C2C3C=CC(C3)C2C(=O)N1c1ccc2ccccc2c1` (stereo not given), which Potency is on record?
The Potency was “inactive”.

How did the Potency turn out when `Nc1c(-c2ccccc2)cnn1-c1cccc([N+](=O)[O-])c1` was run?
Its Potency is inconclusive: 2.51 µM [activator, full curve, poor fit].

How did the Potency turn out when `Cc1ccc(-c2csc(N(CCCN(C)C)C(=O)c3ccco3)n2)cc1` was run?
The Potency was active: 0.631 µM.

`O=C(CN1C(=O)c2cccc3cccc1c23)NC1CCCC1` was tested. Which Potency did it give?
The Potency was “inactive”.

`CC(C)(C)OC(=O)N/N=C/c1cc(N=Nc2ccccc2)ccc1O` was tested. Which Potency did it give?
The Potency was active: 3.98 µM.

`COc1ccccc1Cn1[nH]nnc1=S` was tested. Which Potency did it give?
Its Potency is inconclusive: 17.8 µM [inhibitor, single point].

How did the Potency turn out when `COc1cc(-c2nc3ccccn3c2/N=C/c2ccccc2)ccc1O` was run?
The Potency was active: 12.6 µM.

`O=C(Nc1cccnc1)Nc1cc(Cl)cc(Cl)c1` was tested. Which Potency did it give?
The Potency was inconclusive: 2.24 µM [activator, partial curve].

`COc1ccc(OCC(O)CNc2ccc(Br)cc2)cc1` (stereo not given) was tested. Which Potency did it give?
Its Potency is inconclusive: 35.5 µM [inhibitor, single point].
